Measurements from PubChem BioAssay AID1259415 (National Center for Advancing Translational Sciences (NCATS), 2018).
Among all 410,000 compounds or so, about 18,000 (4.4%) were called active. Inconclusive means that the source gave no clear call. Such entries were picked first, then a sample of the others. Rule as the data show it: active = activity change below about -60%; inconclusive = no clear call, values can overlap the other calls; inactive = above about -39%.

Test: qHTS Assay for inhibitors of the human cytomegalovirus (HCMV)
Settings: HFF cells, HCMV-luciferase reporter, 72 h; at 57.5 µM; active compounds read low
In short: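 After 16 h attachment at 37C, HFF cells received test compound and HCMV-luciferase (1 PFU/cell); reporter luminescence read 72 h later, data normalized against buffer-only and known inhibitor Salinomycin.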
% is scaled to controls: 0 for no effect and ±100 for the full control effect.

Structure (SMILES) | activity change, negative = inhibition
COc1ccccc1CNC(=O)c1cc(-c2ccccc2C)nn1CC1CC(c2cccnc2)=NO1 (stereo not given) | inconclusive: -53.9%
Cc1cc(C)n(CC(O)COc2ccccc2Br)n1 (stereo not given) | inactive: 13.8%
Cc1ccc(C)c(NC(=O)CN(Cc2ccccc2)S(=O)(=O)c2ccc3nc(C)sc3c2)c1 | inactive: -20.1%
Cc1ccc(NS(=O)(=O)c2cc3c4c(c2)CC(=O)N4CCC3)cc1C | inconclusive: -56.7%
c1ccc(N2CCN(c3ncnc4c3nc3n4CCCCC3)CC2)cc1 | active: -76.1%
Cc1ccc(N=Cc2c(O)n(-c3ccc4c(c3)OCO4)c(=O)c3ccccc23)cc1 | inconclusive: -44.8%
CCc1nn(CCCC(=O)NCc2ccc(OC)c(OC)c2)c(=O)c2cc3occc3n12 | inactive: 34.2%
CC(=O)c1cccc(NC(=O)CN(C)Cc2ccc(OC(F)F)cc2)c1 | inconclusive: 0%
COc1ccc(CNC(=O)CN2CCC(C(=O)c3ccc(OC)cc3)CC2)cc1 | active: -77.8%
CC1CCN(C(c2cccs2)c2nnnn2Cc2ccccc2)CC1 (stereo not given) | inconclusive: -47.7%
CSc1nccc(N/N=C/c2ccccc2)n1 | inconclusive: -43.6%
CCOC(=O)c1ccc(NC(=O)c2ncn3c2C(=O)N[C@H](C)C3)cc1 | inactive: -29.8%
CCCCCc1n[nH]c2c1CCCC2 | inconclusive: -48.7%
COc1ccc(CCNC(=S)Nc2cc(C)cc(C)c2)cc1 | inactive: -29.3%
Cc1ccc(S(=O)(=O)Nc2ccc3c(c2)nc(CCN2CCCC2)n3C)cc1 | inconclusive: -43.4%
CSc1cccc(NC(=O)c2ccc3c(c2)CCCN3S(C)(=O)=O)c1 | inconclusive: -52.6%
CCCN1CCC(C)(C(=O)Nc2ccccc2Oc2ccccc2)C1 (stereo not given) | inconclusive: -41.7%
O=C(O)CC1SC(=Nc2ccc(O)cc2)NC1=O (stereo not given) | inconclusive: -52.3%
Oc1ccccc1C=NNC(=S)NN=Cc1ccccc1O | inconclusive: -56.9%
COc1ccc(C(=O)c2ccc(N3CCN(C(=O)c4ccc(F)cc4)CC3)c(F)c2)cc1Br | active: -88.5%
CCOc1cc2[nH]c(=O)n(CCCN3CCN(c4ccc(OC)cc4)CC3)c(=O)c2cc1OCC | inconclusive: -50.7%
O=C(CNC(=O)OCc1ccccc1)NC1CCCCCC1 | inconclusive: -50.3%
CN1C(=O)S/C(=C\c2ccccc2OCc2ccc(C(=O)O)cc2)C1=O | inconclusive: -45.9%
Cc1csc2ncnc(N3CCN(C(=S)Nc4ccc(F)cc4F)CC3)c12 | active: -76.9%
CCN(CC)C(=O)[C@H]1CC(CC(=O)NCC23CC4CC(CC(C4)C2)C3)C(=O)N2CCc3c([nH]c4ccccc34)[C@]12C (stereo not given in full) | inconclusive: -48%

Looked up above.
activity change, negative = inhibition, `COc1ccccc1CNC(=O)c1cc(-c2ccccc2C)nn1CC1CC(c2cccnc2)=NO1` (stereo not given) reads inconclusive: -53.9%
activity change, negative = inhibition, `O=C(O)CC1SC(=Nc2ccc(O)cc2)NC1=O` (stereo not given) reads inconclusive: -52.3%
